Assay results reported in PubChem BioAssay AID1745846 (National Center for Advancing Translational Sciences (NCATS), 2022).
Screen size: about 1,400 compounds; about 30 (2%) were called active. About 15% were inconclusive and are not listed. Calls come from the whole dose curve; as a rule, active = well fitted inhibition curve with a large enough effect; inconclusive = small, poorly fitted or top-dose-only effect; inactive = flat fitted curve, though single readings scatter. The list shows a part of the results.

assay: Firefly Luciferase Counterscreen for Inhibitors of ATXN expression; settings: luminescence; series mostly up to 57.5 µM; activity change, negative = inhibition: at the top concentration
Text: University of Utah School of Medicine, Salt Lake City, Utah
Spinocerebellar ataxia type 2 (SCA2) is a multisystem neurodegenerative disease caused by a dominantly acting mutation leading to expansion of a polyQ domain in the ataxin-2 protein (ATXN2). SCA2 patients develop progressive ataxia and later lose function in other neuronal systems. Prominent parkinsonian signs develop in some patients. Like many neurodegenerative disorders, no symptomatic or disease-modifying treatments are known.
The primary objective of the proposed research is to identify compounds inhibiting ATXN2 expression and to test them for efficacy in SCA2 mouse models. We have developed a cell-based assay paired with an in vivo mouse model using identical luciferase expression constructs. This approach takes advantage of an ATXN2-luciferase transgene, with the luciferase gene flanked by the upstream and downstream portions of the ATXN2 gene. Here we describe a 5-7 dose quantitative high thoroughput screen (qHTS) for compounds lowering ATXN2 expression. We screened the NIH Molecular Libraries Small Molecule Repository (MLSMR) and NCGC's mechanistically annotated (MIPE) and drug repurposing (NPC) collections of compounds for lowering expression of an ATXN2-luciferase reporter in HEK-293 cells. The assay is a multiplexed cell viability assay to ensure target reduction in the absence of cytotoxicity. Secondary qHTS assays included a CMV-luciferase reporter expressed in HEK-293 cells as well as a biochemical assay using recombinant luciferase to detect inhibitors of the reporter enzyme. Compounds that inhibit ATXN2 expression but is not cytotoxic were selected for confirmatory and secondary screens.
PROTOCOL TABLE (as described by Inglese J, Shamu CE and Guy RK. 2007)
SEQUENCE No. (e.g., 1, 2, 3, etc.); […] (e.g., Cells, Incubation, Reagent, etc.); VALUE; DESCRIPTION.
2; Compounds; 23 nL; Kalypsis pintool (Wako USA) equipped with a 1536-well pin head.
3; Enzyme; 1 uL; recombinant firefly luciferase (prepared in 50 mM Tris HCl pH7.5, 10 mM MgCl2, 0.05% BSA, 0.01% Tween20) at final concentration of 10 nM. Wells containing buffer only were used as control (set as 100% inhibition when normalizing data).
4; Incubation; 10 min; room temperature.
5; Detection; Luminescence; Viewlux plate reader (PerkinElmer).
NOTES (numbers refer to Sequence numbers above)
1. Luciferase substrate is added to 1536 well, Greiner white assay plate. Evaporation was prevented by covering assay plates with metal lids containing holes to allow gas diffusion.
2. Compounds were added in a dose response manner with the final concentrations of 57, 11.4, 2.28, 0.46, 0.091, 0.018, 0.0037 uM. Vehicle-only plates, with DMSO being pin-transferred to columns 5-48, were inserted uniformly at the beginning and the end of each library to monitor and record any shifts in assay performance.
3. Recombinant firefly luciferase (10 nM final concentration) is added to the assay plate.
5. End-point luminescence is then measured on the Viewlux (PerkinElmer) imager equipped with a clear emission filter using a 2 sec exposure.
Inglese J, Shamu CE and Guy RK, Reporting data from high throughput screening of small molecule libraries, Nature Chemical Biology, 2007, 3(8): 438-441. doi.org/10.1038/nchembio0807-438.
% is set by controls: 0 for no effect and ±100 for the full control effect; potency is the fitted concentration of half-maximal effect.

SMILES	activity change, negative = inhibition	Potency
Cc1c(C(=O)N2c3ccccc3Sc3ccccc32)cccc1[N+](=O)[O-]	inactive: -0.615%	
Cc1ccc(NC(=O)CNC(=O)c2cccc(C)c2)nc1	inactive: -5.12%	
CCc1nc2ccc(C(=O)N(C)Cc3ccccc3)cn2c1N(C)Cc1ccc(OC)cc1	inactive: -0.261%	
CC(C)(O)C#Cc1ccc([C@@H]2C[C@H]3CN(c4ccccc4)C(=O)[C@]34CCCN24)s1	inactive: -1.03%	
CCn1cc(C(=O)NCc2ccccc2)c(=O)c2cc(F)c(N3CCN(C(=O)c4ccco4)CC3)cc21	inactive: -0.619%	
Cc1ccc(CN2CCC(c3cc(-c4ccc(Cl)cc4)n[nH]3)CC2)cc1	inactive: -1.78%	
CCn1c2ccccc2c2cc(/C=N/NC(=O)c3ccncc3)ccc21	inactive: -5.05%	
Cc1ccccc1C(=O)N/N=C/c1ccc([N+](=O)[O-])s1		active: 3.55 µM
NC(=O)Cn1c(=O)n(CCc2ccccc2)c(=O)c2c3c(sc21)CCCC3	inactive: -1.87%	
COc1cc(/C=C2\COC/C(=C\c3cc(OC)c(OC)c(OC)c3)C2=O)cc(OC)c1OC	inactive: -2%	
COc1ccc(C(NC(C)=O)c2cc(Cl)c3cccnc3c2O)cc1 (stereo not given)	inactive: -14.4%	
CCCCN(C)c1nc(-c2ccco2)c2c(c1C#N)CC(C)(C)OC2	inactive: -12.5%	
CC(C)(C)OC(=O)NNc1c2ccccc2nc2ccccc12	inactive: -13.9%	
Cc1ccc(-c2csc(N3CCN(c4cc5c(cc4Cl)nc(-c4ccncc4)n5CCOCCO)CC3)n2)cc1	inactive: -0.701%	
O=C(Nc1cccc(Br)c1)c1cccc(OC(=S)N2CCOCC2)c1	inactive: -13.5%	
CCCC(=O)N1CCCC(c2cc(C(=O)Nc3ccccc3)no2)C1 (stereo not given)		active: 1.41 µM
O=[N+]([O-])c1ccc(O)c(/C=N/Nc2ncnc3c2cnn3-c2ccccc2)c1	inactive: -18%	
CC(=O)NC(c1cccs1)c1cc(Br)c2cccnc2c1O (stereo not given)	inactive: -15.7%	
COc1ccc(-c2csc(NC(=O)c3ccc(OCC(=O)N4CCOCC4)c(OC)c3)n2)cc1OC	inactive: -14%	
COc1ccccc1NC(=S)NC(=O)c1ccc(Cn2cc(Br)cn2)cc1	inactive: 0.576%	
Cc1ccc(S(=O)(=O)N(Cc2ccccc2)c2ccccc2C(=O)NCc2ccco2)cc1	inactive: -1.41%	
Cc1cc(OCCCCCn2ccnc2)cc(C)c1Cl	inactive: -6.15%	
COc1ccc(Cl)cc1C(=O)Nc1ccccc1N1CCN(C(=O)C(C)C)CC1	inactive: -2.44%	
O=C(Nc1nnc(C2CC2)o1)c1ccc(S(=O)(=O)N2CCCc3ccccc32)cc1	inactive: -19.2%	
COc1ccccc1/C=C/C(=O)OCC(=O)Nc1ccc(Cl)cn1	inactive: -12.4%	

SMILES	activity change, negative = inhibition	Potency
COc1ccccc1N(CC(=O)NCCSCc1ccc(C)cc1)S(=O)(=O)c1ccccc1	inactive: 1.88%	
COc1ccc(-c2oc3c(OC)c(OC)c(OC)c(O)c3c(=O)c2OC)cc1OC	inactive: -3.94%	
Cc1cc2c(N=O)c(NO)ccc2[nH]1	inactive: -17.6%	
O=c1c2ccc(Cl)cc2nc(-c2ccc([N+](=O)[O-])cc2)n1O	inactive: -18.4%	
CCC(C)N1C(=O)S/C(=C/c2ccc(Sc3nc4ccccc4[nH]3)o2)C1=O (stereo not given)	inactive: -1.05%	
O=c1nccc(N/N=C/c2ccccc2O)[nH]1	inactive: -18.7%	
CCOc1ccccc1N1CCN(c2ncnc3scc(-c4ccc(OC)cc4)c23)CC1	inactive: -1.89%	
CN1CCN(CC#CCn2c3ccccc3c3ccccc32)CC1	inactive: -3.12%	
Cc1ccc(-c2c(C#N)c(N)n3c(nc4ccccc43)c2C#N)cc1	inactive: -11.2%	
O=C(N/N=C/c1cc(Br)ccc1O)C(c1ccncc1)N1CCOCC1 (stereo not given)	inactive: -3.73%	
COc1ccc(-c2c[n+]3c(n2-c2ccc(C)cc2)CCCCC3)cc1	inactive: -0.275%	
COc1ccc(O)c(/C=N/NC(=O)c2ccc(CSc3nc(C)cc(C)n3)cc2)c1	inactive: -1.96%	
C[C@@H]1ON(C)[C@H]2C[C@H]3c4[nH]c5ccc(-c6ccc7c(c6)OCO7)cc5c4CCN3C(=O)[C@@H]12	inactive: -19.1%	
COc1ccccc1N(C)S(=O)(=O)c1ccc(C(=O)Nc2ccc(N3CCOCC3)cc2)cc1	inactive: -0.914%	
CC(C)C(=O)NC(c1cccc([N+](=O)[O-])c1)c1ccc2cccnc2c1O (stereo not given)	inactive: 0.322%	
COc1cccc(C(=O)NC2CC3CCCC(C2)N3CC(=O)Nc2ccccc2C(F)(F)F)c1 (stereo not given)	inactive: -3.42%	
N#Cc1cc2c(=O)n3ccccc3nc2n(-c2ccccc2Cl)c1=O	inactive: -0.166%	
COc1ccc2c(c1)c[n+](C)c1c3cc(OC)c(OC)cc3ccc21	inactive: -19.9%	
O=C(N/N=C/c1cc(Br)cc(Cl)c1O)c1ccc2c(c1)OCO2	inactive: -18.1%	
Cc1cc(C)c(CSc2ncc(-c3ccc([N+](=O)[O-])cc3)[nH]2)c(C)c1	inactive: -2.77%	
COc1cc(/C=C/c2ccc3cccc(O)c3n2)cc(OC)c1OC	inactive: -9.37%	
O=C(Nc1nonc1-c1ccc(Cl)cc1)c1ccccc1	inactive: 1.38%	
CCOc1ccc(-c2c[n+]3c(n2-c2ccccc2)CCCCC3)cc1	inactive: -1.14%	
Cc1ccc(-n2cccn2)c(CN2CCCC(C(=O)c3ccc4c(c3)OCO4)C2)c1 (stereo not given)	inactive: 1.04%	
CC(C)(C)c1ccc(OCCCC(=O)NNC(=O)c2ccccc2O)cc1	inactive: -10.8%	

SMILES	activity change, negative = inhibition	Potency
O=S(=O)([N-]c1nc2ccccc2nc1-[n+]1ccc(Cc2ccccc2)cc1)c1ccc(Br)s1	inactive: -13.6%	
CS(=O)(=O)c1ccc(Nc2nc(C(N)Cc3ccc(Cl)cc3)cs2)cc1 (stereo not given)	inactive: 0.635%	
O=S(=O)(c1ccc(Cl)cc1)N1CCN(Cc2ccc(O)c3ncccc23)CC1	inactive: -0.192%	
COc1c(C)cccc1C(=O)Nc1ccc(N2CCN(C(=O)c3ccccc3C)CC2)cc1	inactive: -4.9%	
Cc1ccc(OCC(O)Cn2c(=N)n(CCN3CCCCC3)c3ccccc32)cc1 (stereo not given)	inactive: 4.64%	
CN(C)CCOc1ccc(-c2c(-c3ccccc3)sc3ccccc23)cc1	inactive: -0.446%	
O=C(Nc1nc2cc(Cl)ccc2s1)C1CCCN(S(=O)(=O)c2cccc3cccnc23)C1 (stereo not given)	inactive: -4.41%	
COc1ccc2nc(C)cc(NCc3cccc(C(F)(F)F)c3)c2c1	inactive: 7.1%	
OC[C@@H]1[C@@H](c2ccc(F)cc2)C(c2cccc(Cl)c2)=NN1c1ccccc1	inactive: 0.584%	
O=C(Nc1cccc(S(=O)(=O)C(F)F)c1)c1ccc(Cl)c(S(=O)(=O)N2CCOCC2)c1	inactive: -0.947%	
Nc1ncn([C@@H]2O[C@H](CO)[C@@H](O)[C@H]2O)c(=O)n1	inactive: 2.75%	
CCN1CCN(CCNC(=O)c2ccc(/C=C3/Sc4ccccc4N(Cc4cccc(C)c4)C3=O)cc2)CC1	inactive: -6.25%	
OCC1(CCOc2ccccc2)CCN(CC2=Cc3cc(Cl)ccc3OC2)CC1	inactive: -1.6%	
CCCNC(=O)c1ccc2c(=O)c(O)c(-c3ccc(F)cc3)[nH]c2c1	inactive: -1.96%	
O=C(Nc1ccc2c(c1)CCC2)C1CCN(c2c3c(nc4ncnn24)CCC3)CC1	inactive: -1.56%	
Cc1ccnc(NC(c2ccccc2)c2ccc3cccnc3c2O)c1 (stereo not given)	inactive: -12.2%	
CC(=O)Nc1ccc(C(=O)N/N=C/c2cc(Br)cc(Br)c2O)cc1	inactive: -9.63%	
O=C(CCN1C(=O)C2CC=CCC2C1=O)Nc1nc(-c2ccc(F)c(F)c2)cs1 (stereo not given)	inactive: -5.62%	
COC(=O)c1cc(Cl)ccc1NCC(N)c1ccccc1 (stereo not given)	inactive: -2.83%	
C[C@@H]1CN([C@@H](C)CO)S(=O)(=O)c2ccc(C#CC3CCCCC3)cc2O[C@@H]1CN(C)Cc1cccnc1	inactive: 1.2%	
CCN1c2ccccc2NC2N=C(OC)C(c3ccccc3)C21 (stereo not given)	inactive: 1.07%	
c1ccc(Nc2nc(N3CCCCC3)nc(N3CCNCC3)n2)cc1	inactive: 3.18%	
COc1ccc(/C=C/C(O)=C2/C(=O)N(C)C3(C)CC2c2ccccc2O3)cc1 (stereo not given)	inactive: -8.99%	
O=C(Nc1ccc(OC(F)(F)F)cc1)N1CCN(c2ccnc3cc(Cl)ccc23)CC1	inactive: 2.31%	
CN(C)c1ccc(CNCCC(Cc2ccccc2)c2ccco2)cc1 (stereo not given)	inactive: -0.286%	

SMILES	activity change, negative = inhibition	Potency
CS(=O)(=O)N1CCC(Oc2cccc(C(=O)NCCCC3CCCC3)c2)CC1	inactive: -18.3%	
O=S(=O)(Cc1cc(NCc2ccccc2)nc(-c2ccccn2)n1)c1ccccc1	inactive: -5.07%	
Cc1nc2ccccc2c2oc(C(=O)Nc3ccc(C(C)C)cc3)cc12	inactive: -9.58%	
O=C(COc1nsnc1N1CCOCC1)N/N=C/c1ccccc1O	inactive: -13.4%	
CC1(C)Cc2ccccc2C2=NNC(=O)C2=N1	inactive: -3.52%	
O=C(Nc1ccc(Cl)cc1)Nc1ccc(N2CCCC2)c(S(=O)(=O)Nc2ccccc2Cl)c1	inactive: -1.19%	
COc1ccc(N(C(=O)c2snc(C(N)=O)c2N)C(C(=O)NCc2ccc(F)cc2)c2ccc(O)cc2)cc1 (stereo not given)	inactive: 3.26%	
Nc1ccn(C2OC(COP(=O)(O)O)C(O)C2O)c(=O)n1 (stereo not given)	inactive: 4.84%	
CCCCC(=O)NC(c1ccc(N(C)C)cc1)c1ccc2cccnc2c1O (stereo not given)	inactive: -0.812%	
O=C(/C=C/c1ccco1)Oc1cc(Br)cc(/C=N/NC(=O)c2ccccc2O)c1		active: 12.6 µM
Cc1cccn2c(Nc3ccccc3)c(-c3ccccn3)nc12	inactive: -9.21%	
COc1ccccc1/C=C1\SC(=S)N(CCC(=O)NC2=NCCS2)C1=O	inactive: -18.4%	
Cc1nc(-c2ccc(F)cc2)c(CC(=O)N(C)CC(=O)Nc2ccc(Cl)c(C(F)(F)F)c2)s1	inactive: -2.48%	
Cc1ccc(Nc2c(-c3ccccn3)nc3cccc(C)n23)cc1	inactive: -6.27%	
Nc1nc(N)c2cc(Sc3ccc4ccccc4c3)ccc2n1	inactive: -1.81%	
Cc1noc(C)c1CSCC(=O)Nc1nc(-c2ccc(F)c(F)c2)cs1	inactive: -7.41%	
Cc1ccc(C(NC(=O)C2CCN(CCOc3ccc(Cl)cc3Cl)CC2)c2ccccn2)cc1 (stereo not given)	inactive: -15.3%	
Cc1cccc(OCC(=O)Nc2ccc3c(c2)nc(CCN2CCN(c4ccccn4)CC2)n3C)c1	inactive: -8.57%	
CC(=O)Nc1sc2c(c1-c1nc3ccccc3s1)CN(C(C)C)CC2	inactive: 0.271%	
CC1(C)Cc2ccccc2C(NNC(=O)c2ccccn2)=N1	inactive: 0.45%	
OCCNc1c2ccccc2nc2ccccc12	inactive: -4.32%	
O=C(CSc1ccc2c(c1)OCCO2)Nc1ccc(Cl)cn1	inactive: -15.3%	
COc1ccc(Br)cc1C(=O)NC(=S)Nc1ccc(CN2CCOCC2)cc1	inactive: -13.5%	
Cc1[nH]n2c(=O)cc(C(C)(C)C)nc2c1-c1ccccc1	inactive: -12.8%	
CC1(C)Cc2c(ccc3ccccc23)C2=C(C(=O)N3CCCC3)C(=O)C(=O)N21	inactive: 1.6%	
